In this data set the test system is β-galactosidase. The data set can be described thus: Sensitivity of desialylated 35SO4-transferred oligosaccharides to digestion with β-galactosidase (position of transferred sulfate). The data set is classed as biochemical, Streptococcus. The settings on record: after neuraminidase desialylation and β-galactosidase digestion; gel filtration. On the technique in general: In gel filtration, larger molecules generally elute earlier.

Each structure is given as a SMILES string.

For the molecule `CC(=O)NC1C(O)OC(CO)C(OC2OC(CO)C(O)C(OC3OC(CO)C(OC4OC(CO)C(O)C(OC5(C(=O)O)CC(O)C(NC(C)=O)C(C(O)C(O)CO)O5)C4O)C(O)C3NC(C)=O)C2O)C1O` (centres unmarked) [SL1L1, NeuAcα2--3Galβ1--4GlcNAcβ1--3Galβ1--4GlcNAc], the “Fraction of transferred 35SO4 positioned at the Gal residue on the non-reducing-end side (35S-radioactivity resistant to β-galactosidase)” value is reported as “about 1/3”.

Consider `CC(=O)NC1C(O)OC(COS(=O)(=O)O)C(OC2OC(COS(=O)(=O)O)C(O)C(OC3OC(COS(=O)(=O)O)C(OC4OC(CO)C(O)C(OC5(C(=O)O)CC(O)C(NC(C)=O)C(C(O)C(O)CO)O5)C4O)C(O)C3NC(C)=O)C2O)C1O` [SL2L4, NeuAcα2--3Galβ1--4GlcNAc(6S)β1--3Gal(6S)β1--4GlcNAc(6S)], for which the “Fraction of transferred 35SO4 positioned at the Gal residue on the non-reducing-end side (35S-radioactivity resistant to β-galactosidase)” value was “all”.
